Data reported in publication PMC6721724, “The Intrinsically Disordered C-Terminal Domain Triggers Nucleolar Localization and Function Switch of PARN in Response to DNA Damage” (Cells, 2019).
These are yes or no findings as the source states them, for the method shown. For some of these results: In cells and extracts the contact can be indirect. Some entries that bind do so weakly or less than the wild type. For some of these results: Sequences can lack the tags named with a protein.

T1: Flag-PARN-S557A (human) (UniProt O95453)
T1 sequence: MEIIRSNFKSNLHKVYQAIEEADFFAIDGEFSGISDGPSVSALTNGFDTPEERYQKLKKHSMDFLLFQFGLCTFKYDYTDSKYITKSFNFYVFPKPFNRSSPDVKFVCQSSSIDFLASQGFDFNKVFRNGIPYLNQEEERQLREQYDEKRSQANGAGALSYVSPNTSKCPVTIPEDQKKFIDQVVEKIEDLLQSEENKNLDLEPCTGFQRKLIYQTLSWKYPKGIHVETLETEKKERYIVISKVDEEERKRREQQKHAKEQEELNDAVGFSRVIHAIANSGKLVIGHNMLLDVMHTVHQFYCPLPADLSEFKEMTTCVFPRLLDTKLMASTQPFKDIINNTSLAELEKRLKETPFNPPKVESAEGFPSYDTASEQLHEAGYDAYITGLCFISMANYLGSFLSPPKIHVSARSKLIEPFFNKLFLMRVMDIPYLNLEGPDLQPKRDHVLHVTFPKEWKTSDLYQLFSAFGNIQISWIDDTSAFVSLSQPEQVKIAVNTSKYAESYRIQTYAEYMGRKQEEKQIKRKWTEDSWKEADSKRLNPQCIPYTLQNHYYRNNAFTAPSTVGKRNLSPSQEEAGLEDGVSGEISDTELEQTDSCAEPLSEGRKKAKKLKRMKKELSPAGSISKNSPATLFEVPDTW

T2: Flag-PARN-S557D (human) (UniProt O95453)
T2 sequence: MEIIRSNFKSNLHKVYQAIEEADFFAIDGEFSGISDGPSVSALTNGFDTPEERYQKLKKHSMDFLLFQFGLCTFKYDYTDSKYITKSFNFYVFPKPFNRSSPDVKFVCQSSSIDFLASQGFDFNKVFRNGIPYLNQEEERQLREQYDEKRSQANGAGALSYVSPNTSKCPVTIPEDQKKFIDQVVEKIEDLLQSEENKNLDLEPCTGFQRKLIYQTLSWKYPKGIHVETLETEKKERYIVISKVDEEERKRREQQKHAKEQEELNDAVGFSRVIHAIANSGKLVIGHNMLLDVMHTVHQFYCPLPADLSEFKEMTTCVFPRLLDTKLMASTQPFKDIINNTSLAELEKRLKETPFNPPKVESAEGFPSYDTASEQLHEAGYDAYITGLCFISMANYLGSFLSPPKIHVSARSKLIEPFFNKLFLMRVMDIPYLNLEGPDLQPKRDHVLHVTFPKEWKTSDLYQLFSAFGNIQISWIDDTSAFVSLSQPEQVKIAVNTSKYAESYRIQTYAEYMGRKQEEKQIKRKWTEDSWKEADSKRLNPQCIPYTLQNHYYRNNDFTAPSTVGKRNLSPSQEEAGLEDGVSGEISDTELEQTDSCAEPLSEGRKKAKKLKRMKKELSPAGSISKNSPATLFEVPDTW

T3: Flag-tagged full length PARN (poly(A)-specific ribonuclease) (human) (UniProt O95453)
T3 sequence: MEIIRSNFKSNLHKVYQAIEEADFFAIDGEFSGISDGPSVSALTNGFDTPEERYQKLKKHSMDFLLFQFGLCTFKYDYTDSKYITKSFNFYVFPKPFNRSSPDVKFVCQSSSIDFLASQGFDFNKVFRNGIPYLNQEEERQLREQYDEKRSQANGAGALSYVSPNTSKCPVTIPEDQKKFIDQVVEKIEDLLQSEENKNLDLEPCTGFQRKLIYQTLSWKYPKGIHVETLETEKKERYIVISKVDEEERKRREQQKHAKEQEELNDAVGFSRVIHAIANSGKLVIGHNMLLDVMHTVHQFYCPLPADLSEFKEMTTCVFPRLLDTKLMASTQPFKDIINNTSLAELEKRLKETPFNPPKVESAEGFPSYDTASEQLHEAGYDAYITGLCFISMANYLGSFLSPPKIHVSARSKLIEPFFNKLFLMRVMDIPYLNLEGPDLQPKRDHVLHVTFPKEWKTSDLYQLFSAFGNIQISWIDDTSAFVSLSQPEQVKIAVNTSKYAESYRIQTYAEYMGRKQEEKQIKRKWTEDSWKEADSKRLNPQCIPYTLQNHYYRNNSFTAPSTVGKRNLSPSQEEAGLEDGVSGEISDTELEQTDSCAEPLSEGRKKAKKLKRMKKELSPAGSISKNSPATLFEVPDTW


Key:
Flag-PARN-S557A (human) = target: T1, Flag-PARN-S557A (human); assay: co-IP; HEK-293T cells co-transfected with Flag-PARN (or its fragment or mutant) and HA-CBP80 or HA-CstF-50, untreated (normal conditions; for PARN with CBP80 also UV-treated cells); lysate in IP lysis buffer (50 mM Tris-HCl pH 7.4, 150 mM NaCl, 1% NP-40), RNase A treated, anti-Flag M2-agarose overnight on ice, blot with anti-HA
Flag-PARN-S557D (human) = target: T2, Flag-PARN-S557D (human); assay: as above
[1] = target: T3, Flag-tagged full length PARN (poly(A)-specific ribonuclease) (human); assay: co-IP; HEK-293T cells co-transfected with Flag-PARN and HA-CstF-50, exposed to 100 J/m^2 UV light for 10 min, then 2 h in fresh medium; RNase A treated lysate, anti-Flag M2-agarose, blot with anti-HA
[2] = target: PARN-CTD (amino acid residues 541-639), recombinant (human) (UniProt O95453); assay: cross-linking; purified protein cross-linked with 0.03% glutaraldehyde, analysed by SDS-PAGE; both purified

Binder	binding (Flag-PARN-S557A (human))	binding (Flag-PARN-S557D (human))	binding [1]	binding [2]
HA-tagged CstF-50 (protein, UniProt Q05048 1-431) MYRTKVGLKDRQQLYKLIISQLLYDGYISIANGLINEIKPQSVCAPSEQLLHLIKLGMENDDTAVQYAIGRSDTVAPGTGIDLEFDADVQTMSPEASEYETCYVTSHKGPCRVATYSRDGQLIATGSADASIKILDTERMLAKSAMPIEVMMNETAQQNMENHPVIRTLYDHVDEVTCLAFHPTEQILASGSRDYTLKLFDYSKPSAKRAFKYIQEAEMLRSISFHPSGDFILVGTQHPTLRLYDINTFQCFVSCNPQDQHTDAICSVNYNSSANMYVTGSKDGCIKLWDGVSNRCITTFEKAHDGAEVCSAIFSKNSKYILSSGKDSVAKLWEISTGRTLVRYTGAGLSGRQVHRTQAVFNHTEDYVLLPDERTISLCCWDSRTAERRNLLSLGHNNIVRCIVHSPTNPGFMTCSDDFRARFWYRRSTTD	no binding	no binding	binds weakly	
PARN-CTD (amino acid residues 541-639), recombinant (domain or fragment, UniProt O95453 541-639) PQCIPYTLQNHYYRNNSFTAPSTVGKRNLSPSQEEAGLEDGVSGEISDTELEQTDSCAEPLSEGRKKAKKLKRMKKELSPAGSISKNSPATLFEVPDTW				no binding
